Measured data: PubChem BioAssay AID504793 (Drosophila RNAi Screening Center, 2011)

Aim: 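Whole-genome screen for parts of the DNA damage checkpoint at G2/M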 (primary screen)
Cells: Drosophila S2R+ cells
Reagent: long dsRNA against Drosophila genes, about 0.25 µg dsRNA per well
Timing: 4 days of dsRNA, then 4 hours of drug before read-out
Conditions: doxorubicin 0.5 µM for 4 hours to cause double-strand breaks, in cells also given a low, harmless dose of dsRNA against nbs to sensitise the assay
Measured: 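Mitotic index as the number of phospho-histone H3-positive cells in each well following doxorubicin, given as raw counts without normalisation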
Reading the numbers: mitotic cells: higher = more cells in mitosis, weaker G2 arrest
Call rule: 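a call needs confirmation in secondary tests, with other dsRNAs and a check of mitotic timing without damage, not just a high primary count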
Meaning of the calls: active = confirmed in follow-up tests; inactive = not confirmed
The screen tested about 23,000 reagents; this is an unselected part of those with a known target gene and a result. In the full data, 62 (0.27%) got an active call. 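Calls come from follow-up tests whose scores are not deposited, so confirmed genes may have low counts here; counts are not normalised per plate.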 Raw values vary from plate to plate and are shown uncorrected. Unmarked entries are inactive. A plus sign joins genes that one reagent is predicted to hit. No sequences are given here.

Against CG2233 [DRSC18217] the deposit lists mitotic cells, replicate 1 = 5.
After knock-down of CG7550 [DRSC10875], the record shows mitotic cells, replicate 1 = 7.
ckn [DRSC06149] gave mitotic cells, replicate 1 = 8.
Cds + Setx [DRSC27090] scored mitotic cells, replicate 1 = 3.
Depletion of CG10470 [DRSC02061] resulted in: mitotic cells, replicate 1 = 5.
Knock-down of CG15196 [DRSC19643] came out at: mitotic cells, replicate 1 = 15.
CG15196 [DRSC24591] showed mitotic cells, replicate 1 = 6.
Against Mlp84B [DRSC12596] the deposit lists mitotic cells, replicate 1 = 6.
With knock-down of Fas1 [DRSC16669], the record shows mitotic cells, replicate 1 = 6.
For CG17751 [DRSC15261], the values are mitotic cells, replicate 1 = 11.
With knock-down of CG17751 [DRSC22837], the screen gave mitotic cells, replicate 1 = 3.
CG17751 [DRSC24497] showed mitotic cells, replicate 1 = 3.
For CG13955 [DRSC06443], the values are mitotic cells, replicate 1 = 3.
CG1324 [DRSC20496] showed mitotic cells, replicate 1 = 5.
With knock-down of CG1324 [DRSC25582], the screen gave mitotic cells, replicate 1 = 7.
Silencing of CG1824 [DRSC19796] came out at: mitotic cells, replicate 1 = 6.
For RhoGAP5A [DRSC18294], the values are mitotic cells, replicate 1 = 4.
Against RhoGAP5A [DRSC24778] the deposit lists mitotic cells, replicate 1 = 6.
Menl-2 + Menl-1 [DRSC07469] gave mitotic cells, replicate 1 = 5.
After knock-down of Menl-2 + Menl-1 [DRSC07470], the record shows mitotic cells, replicate 1 = 1.
Against Menl-2 + Menl-1 [DRSC29015], the entry reads mitotic cells, replicate 1 = 6.
Against CG34260 + cmpy [DRSC11701], the entry reads mitotic cells, replicate 1 = 6.
After knock-down of GckIII [DRSC15729], the record shows mitotic cells, replicate 1 = 6.

3 neighbouring records already listed, quoted:
CG17751 [DRSC15261] — mitotic cells, replicate 1: 11
CG17751 [DRSC22837] — mitotic cells, replicate 1: 3
CG17751 [DRSC24497] — mitotic cells, replicate 1: 3
